Reference: patent US20190330332A1, “Hypothermia Ameliorating Agent” (Kao Corporation, priority 2016, published 2019)
Results are given in words; binding and its absence hold for the method and conditions named. Some results given as binding are weak or reduced against the parent protein; the word gives no strength. Ends that are not written are not given here.

Target: GIP(1-42) (active GIP)
Test: sandwich ELISA; anti-total GIP monoclonal antibody as capture, biotinylated anti-active GIP antibody at 1 ug/mL as detector

B1: anti-active GIP monoclonal antibody produced by hybridoma 9B9H5-B9 line (Production Example 1) (antibody, V domains shown)
VH: QVQLQQPGAELVKPGASVKLSCKASGYTFTSFWMHWVIQRPGQGLEWIGEMNPSDGRTHFNEKFKTKATLTIDTSSNTAYMELNSLTSEDSAVYYCARRMEDWGQGTLVTVSA
VL: DIKMTQSPSSMYASLGERVTITCKASQDINSYLGWFQQKPGKSPKTLIYGANRLVDGVPSRFSGSGSGQDYSLTISSLEYDDMGIYYCLQYDEFPLTFGAGTKLELKR
notes: in the screening and cloning ELISA it was hybridoma culture supernatant; also called anti-active GIP antibody
- binding: binds
